For part of these data: The exact form of at least one protein or probe is not confirmed. For part of these data: A weaker result is weaker than the reference pair of the same experiment. Where a protein sequence is shown, tags need not be part of it. For part of these data: The direction of at least one scale is not stated here.

Results on three sequences are retold here after PMC5499739, “An RRM–ZnF RNA recognition module targets RBM10 to exonic sequences to promote exon exclusion”.

Series [1] has as its target T1, RBM10 RRM1-ZnF (Homo sapiens) (UniProt P98175).
T1 sequence (looked up, limits assumed): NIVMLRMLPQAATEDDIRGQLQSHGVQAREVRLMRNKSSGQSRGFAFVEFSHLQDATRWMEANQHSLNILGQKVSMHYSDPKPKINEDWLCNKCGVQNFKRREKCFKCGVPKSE
Put plainly: ITC. The conditions noted are these: 10 uM ZnCl2, range given for both G-to-A mutants; 10 mM sodium phosphate pH 6.9, 50 mM NaCl, 1 mM TCEP (+10 uM ZnCl2 for ZnF constructs); ITC 25 C; recombinant protein; protein details: His6 or His6-SUMO3, cleaved with HRV 3C.

Series [2] concerns the target T2, RBM10 RRM1-ZnF (Homo sapiens) (UniProt P98175).
T2 sequence (looked up): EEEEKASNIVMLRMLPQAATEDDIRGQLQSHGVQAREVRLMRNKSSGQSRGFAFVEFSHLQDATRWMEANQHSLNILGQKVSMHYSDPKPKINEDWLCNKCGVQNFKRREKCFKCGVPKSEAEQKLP
Put plainly: pull-down. The conditions noted are these: 20 nM protein; 20 mM Hepes pH 7.8, 80 mM KCl, 20 mM NaCl, 10% glycerol, 2 mM DTT; 4 C; purified recombinant protein; residues 122-248; protein details: GST, kept; only the motif is given.

For the sequence CUGUAGA, the binding result in series [1] was “binds more weakly”.

With CUGUGAA, the binding result in series [1] is “binds more weakly”.

In the case of UUGUGAA [7-mer UUGUGAA], in series [2], the binding signal (RNAcompete z-score) is -0.002.
